Assays:
Assay type in all cases: cell-based
LNCaP = test: IncuCyte % confluence cell growth inhibition, LNCaP; conditions: Homo sapiens, AR-positive, AR mutation T877A, % cell growth inhibition relative to DMSO
Experimental: (§1) Cells were grown in DMEM (Dulbecco's Modified Eagle Medium) with 10% FBS (fetal bovine serum) in 384 well plates for 1 day, then dosed with indicated concentrations of exemplary compounds, followed by imaging of all wells every 4 hours by […]™ ZOOM (Sartorius, Goettingen, Germany). Images were then analyzed to discern the % confluence of cells in each well. IC50 values were calculated from dose response curves of the % cell growth inhibition relative to DMSO control at the same time point per each cell line. The IC50 values (μM) for various AR-positive (LNCaP, LNCAPAR, LAPC4, 22Rv1, LNCaP ARin vivo, and LNCaP ARF876L) and AR-negative (PC3 and DU145) prostate cancer cell lines are shown in Table 2.

LNCAP AR = test: IncuCyte % confluence cell growth inhibition, LNCAP AR; conditions: AR-positive, AR w.t., % cell growth inhibition relative to DMSO
Experimental: as §1

LAPC4 = test: IncuCyte % confluence cell growth inhibition, LAPC4; conditions: Homo sapiens, AR-positive, AR w.t., % cell growth inhibition relative to DMSO
Experimental: as §1

22Rv1 = test: IncuCyte % confluence cell growth inhibition, 22Rv1; conditions: Homo sapiens, AR-positive, AR mutation H874Y, % cell growth inhibition relative to DMSO
Experimental: as §1

PC3 = test: IncuCyte % confluence cell growth inhibition, PC3; conditions: Homo sapiens, PC-3; AR-negative; % cell growth inhibition relative to DMSO
Experimental: as §1

DU145 = test: IncuCyte % confluence cell growth inhibition, DU145; conditions: Homo sapiens, DU-145; AR-negative; % cell growth inhibition relative to DMSO
Experimental: as §1

**Q.** `CNC(=O)c1ccc(N2C(=S)N(c3ccc(C#N)c(C(F)(F)F)c3)C(=O)C2(C)C)cc1F` [Enzalutamide, reference compound] was tested. Which IC50 (LNCaP) did it give?
**A.** The IC50 was 59 µM.

**Q.** What about the IC50 (LNCAP AR) of the same compound?
**A.** The IC50 was 53.5 µM.

**Q.** And the IC50 (LAPC4)?
**A.** The IC50 was 67.9 µM.

**Q.** And the IC50 (22Rv1)?
**A.** The IC50 was 70.8 µM.

**Q.** What about the IC50 (PC3) of the same compound?
**A.** The IC50 was 200 µM.

**Q.** What about the IC50 (DU145) of the same compound?
**A.** The IC50 was 86.3 µM.

Source: patent publication US20230135524A1, “ARYL HYDANTOIN HETEROCYCLES AND METHODS OF USE” (The United States of America,as represented by the …, priority 2020, published 2023)
